PubChem BioAssay AID493246 – Drosophila RNAi Screening Center, 2011
The deposit covers about 21,000 reagents; shown is a random part of those that have a named target and a result. In the full data, 429 (2%) were called active. 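Values are raw and not normalised between plates; calls rest on per-plate z-scores that were not deposited.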 Reagents against one gene are numbered here. Names joined by + are all predicted targets of the reagent. Not stated in the record: the amount of reagent, the time to read-out.

Purpose: 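Identify essential fly genes by loss of cell viability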 (primary screen)
Cell system: Drosophila Kc and S2R+ cells
Knock-down reagent: long dsRNA against Drosophila genes
Measurement: 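Raw, unnormalised count of remaining cells in each well; per-plate z-scores of cell number underlie the calls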
Direction: Kc cell number and S2R+ cell number: higher = more cells remaining
Call rule: 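Active when the per-plate z-score of cell number is 3 or more in the direction of fewer cells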

no.	gene	dsRNA no.	Kc cell number, rep 1	Kc cell number, rep 2	S2R+ cell number, rep 1	S2R+ cell number, rep 2	call
1	LeuRS-m (GeneID 38581)	1	1.40e6	1.48e6	1.35e6	1.30e6	inactive
2	CG12644 (retired record) (GeneID 50414)	1	1.79e6	1.85e6	1.14e6	1.32e6	inactive
3	CG4424 (GeneID 42390)	1	1.46e6	1.54e6	1.10e6	1.09e6	inactive
4	CG10332 (retired record) + IM18	1	1.60e6	1.76e6	1.24e6	1.39e6	inactive
5	CG8349 (GeneID 34124)	1	1.56e6	1.52e6	1.19e6	1.27e6	inactive
6	Inos (GeneID 35671)	1	1.46e6	1.52e6	1.27e6	1.40e6	inactive
7	stv (GeneID 39518)	1	1.65e6	1.74e6	1.13e6	1.26e6	inactive
8	stv (GeneID 39518)	2	1.47e6	1.81e6	1.27e6	1.27e6	inactive
9	CG34370 (GeneID 5740565)	1	5.71e5		8.86e5		inactive
10	CG34370 (GeneID 5740565)	2	1.50e6	1.60e6	1.36e6	3.91e5	inactive
11	CG34370 (GeneID 5740565)	3	1.51e6	1.65e6	1.35e6	4.00e5	inactive
12	CG34370 (GeneID 5740565)	4	1.47e6	1.61e6	1.30e6	4.28e5	inactive
13	Takl2 (GeneID 42692)	1	1.48e6	1.47e6	9.89e5	1.06e6	inactive
14	CG18095 (GeneID 34823)	1	1.59e6	1.60e6	1.27e6	1.46e6	inactive
15	Ndf (GeneID 192507)	1	1.30e6	1.37e6	1.22e6	1.23e6	inactive
16	Mcm6 (GeneID 31603)	1	5.33e5		8.77e5		inactive
17	CG11353 (GeneID 38560)	1	1.49e6	1.65e6	1.30e6	1.13e6	inactive
18	Gapdh2 (GeneID 32545)	1	1.37e6	1.41e6	1.07e6	1.15e6	inactive
19	CG4570 (GeneID 41306)	1	1.38e6	1.40e6	1.27e6	1.35e6	inactive
20	CG42663 (GeneID 36403)	1	1.71e6	1.76e6	1.26e6	1.44e6	inactive
21	CG42663 (GeneID 36403)	2	1.72e6	1.71e6	1.13e6	1.20e6	inactive
22	eIF2D (GeneID 64874)	1	1.00e6	1.39e6	1.01e6	9.74e5	inactive
23	Galphas (GeneID 37805)	1	1.42e6	1.59e6	1.09e6	9.51e5	inactive
24	CG8093 (GeneID 36686)	1	1.64e6	1.60e6	1.22e6	1.37e6	inactive
25	piwi (GeneID 34521)	1	1.34e6	1.39e6	1.21e6	1.21e6	inactive
26	pyx (GeneID 38037)	1	1.42e6	1.31e6	9.86e5	1.25e6	inactive
27	pyx (GeneID 38037)	2	1.42e6	1.38e6	8.29e5	1.15e6	inactive
28	run (GeneID 33059)	1	1.70e6	1.72e6	1.08e6	1.16e6	inactive
29	betaggt-I (GeneID 33704)	1	1.70e6	1.64e6	1.17e6	1.29e6	inactive
30	Mp20 (GeneID 36468)	1	1.46e6	1.50e6	1.16e6	1.26e6	inactive
31	CG34301 (GeneID 5740866)	1	1.41e6	1.46e6	1.04e6	1.24e6	inactive
32	CG10183 (GeneID 42782)	1	1.76e6	1.63e6	9.80e5	1.10e6	inactive
33	CG13044 (GeneID 39795)	1	1.58e6	1.58e6	1.19e6	1.34e6	inactive
34	CG30349 (GeneID 35885)	1	1.64e6	1.58e6	1.32e6	1.42e6	inactive
35	CG30349 (GeneID 35885)	2	1.45e6	1.46e6	1.27e6	1.42e6	inactive
36	Tom70 (GeneID 34618)	1	1.51e6	1.58e6	1.02e6	1.16e6	inactive
37	CG11563 (GeneID 43735)	1	1.53e6	1.54e6	9.96e5	1.12e6	inactive
38	CG42457 (retired record) + cpo	1	1.22e6	1.31e6	9.77e5	1.03e6	inactive
39	CG42457 (retired record) + cpo	2	1.07e6	9.49e5	5.50e5	6.34e5	active
40	CG42457 (retired record) + cpo	3	8.17e5	8.21e5	4.94e5	5.42e5	active
41	CG42457 (retired record) + cpo	4	1.36e6	1.22e6	5.27e5	5.45e5	active
42	CG7985 (GeneID 42178)	1	1.58e6	1.69e6	1.24e6	1.32e6	inactive
43	CG12984 (GeneID 40321)	1	1.35e6	1.39e6	1.30e6	1.40e6	inactive
44	CG9727 (GeneID 40794)	1	1.63e6	1.65e6	1.28e6	1.37e6	inactive
45	Apl (GeneID 59216)	1	1.22e6	1.39e6	1.28e6	1.36e6	inactive
46	MED20 (GeneID 43952)	1	1.69e6	1.77e6	1.00e6	1.14e6	inactive
47	Desat2 (GeneID 41536)	1	1.40e6	1.43e6	1.30e6	1.37e6	inactive
48	step (GeneID 35425)	1	1.69e6	1.82e6	1.36e6	3.46e5	inactive
49	step (GeneID 35425)	2	1.81e6	1.83e6	1.23e6	2.37e5	inactive
50	iotaTry (GeneID 36223)	1	1.50e6	1.47e6	1.25e6	1.27e6	inactive
51	tx (retired record) (GeneID 44875)	1	5.63e5		7.00e5		inactive
52	RpL22 (GeneID 31022)	1	8.23e5	8.13e5	5.33e5	6.71e5	active
53	NimC4 (GeneID 34824)	1	1.49e6	1.50e6	1.27e6	1.39e6	inactive
54	CG5002 (GeneID 37025)	1	1.54e6	1.66e6	1.19e6	1.04e6	inactive
55	Jon44E (GeneID 35853)	1	1.59e6	1.63e6	1.23e6	1.43e6	inactive
56	lncRNA:CR32368 (GeneID 317997)	1	1.65e6	1.71e6	1.19e6	1.34e6	inactive
57	CG16786 (GeneID 37856)	1	1.55e6	1.63e6	1.23e6	1.35e6	inactive
58	CngA (GeneID 36806)	1	1.42e6	1.50e6	9.33e5	1.02e6	inactive
59	CngA (GeneID 36806)	2	1.47e6	1.58e6	1.14e6	1.21e6	inactive
60	Tret1-2 (GeneID 36249)	1	1.53e6	1.58e6	1.28e6	1.34e6	inactive
61	Lac (GeneID 36363)	1	1.36e6	1.38e6	1.20e6	1.21e6	inactive
62	CG12003 (GeneID 38183)	1	1.32e6	1.49e6	1.06e6	1.20e6	inactive
63	Liprin-beta (GeneID 39524)	1	1.33e6	1.40e6	1.26e6	1.34e6	inactive
64	CG8738 (GeneID 35855)	1	1.69e6	1.70e6	1.31e6	1.43e6	inactive
65	CG34217 (GeneID 5740254)	1	1.46e6	1.54e6	9.74e5	1.06e6	inactive
66	CG14635 (GeneID 31032)	1	1.59e6	1.65e6	9.80e5	1.16e6	inactive
67	CG11456 (GeneID 40309)	1	1.51e6	1.59e6	1.33e6	1.46e6	inactive
68	MED8 (GeneID 37305)	1	2.03e6	1.97e6	1.38e6	1.68e6	inactive
69	Xport-A + Xport-B	1	1.52e6	1.62e6	1.18e6	1.21e6	inactive
70	CG33655 (GeneID 8674081)	1	6.37e5		8.58e5		inactive
71	CG14684 (GeneID 41281)	1	1.48e6	1.47e6	1.25e6	1.31e6	inactive
72	Gpxl (GeneID 37194)	1	1.44e6	1.47e6	1.11e6	1.24e6	inactive
73	alpha-Man-Ia (GeneID 31957)	1	1.25e6	1.41e6	9.47e5	9.80e5	inactive
74	alpha-Man-Ia (GeneID 31957)	2	1.66e6	1.48e6	1.18e6	1.20e6	inactive
75	alpha-Man-Ia (GeneID 31957)	3	1.65e6	1.53e6	1.11e6	1.26e6	inactive
76	alpha-Man-Ia (GeneID 31957)	4	1.57e6	1.47e6	1.08e6	1.16e6	inactive

A stretch of the results above, for reference:
no.	gene	dsRNA no.	Kc cell number, rep 1	Kc cell number, rep 2	S2R+ cell number, rep 1	S2R+ cell number, rep 2	call
27	pyx (GeneID 38037)	2	1.42e6	1.38e6	8.29e5	1.15e6	inactive
28	run (GeneID 33059)	1	1.70e6	1.72e6	1.08e6	1.16e6	inactive
29	betaggt-I (GeneID 33704)	1	1.70e6	1.64e6	1.17e6	1.29e6	inactive
30	Mp20 (GeneID 36468)	1	1.46e6	1.50e6	1.16e6	1.26e6	inactive
31	CG34301 (GeneID 5740866)	1	1.41e6	1.46e6	1.04e6	1.24e6	inactive
32	CG10183 (GeneID 42782)	1	1.76e6	1.63e6	9.80e5	1.10e6	inactive
33	CG13044 (GeneID 39795)	1	1.58e6	1.58e6	1.19e6	1.34e6	inactive
34	CG30349 (GeneID 35885)	1	1.64e6	1.58e6	1.32e6	1.42e6	inactive
35	CG30349 (GeneID 35885)	2	1.45e6	1.46e6	1.27e6	1.42e6	inactive
36	Tom70 (GeneID 34618)	1	1.51e6	1.58e6	1.02e6	1.16e6	inactive
37	CG11563 (GeneID 43735)	1	1.53e6	1.54e6	9.96e5	1.12e6	inactive
